# Measurements from the supplement of paper PMC6411743.
# ± gives the standard deviation of the averaged measurements. Only a part is listed here, and it is no random draw.
# Tests used:
# Test in all cases: NP40-soluble protein abundance relative to vehicle (solubility fold change) (ratio); higher = more soluble protein in presence of ATP
# ACAP2 = molecular target: T1, ACAP2 (UniProt Q15057)
# T1 sequence (whole entry): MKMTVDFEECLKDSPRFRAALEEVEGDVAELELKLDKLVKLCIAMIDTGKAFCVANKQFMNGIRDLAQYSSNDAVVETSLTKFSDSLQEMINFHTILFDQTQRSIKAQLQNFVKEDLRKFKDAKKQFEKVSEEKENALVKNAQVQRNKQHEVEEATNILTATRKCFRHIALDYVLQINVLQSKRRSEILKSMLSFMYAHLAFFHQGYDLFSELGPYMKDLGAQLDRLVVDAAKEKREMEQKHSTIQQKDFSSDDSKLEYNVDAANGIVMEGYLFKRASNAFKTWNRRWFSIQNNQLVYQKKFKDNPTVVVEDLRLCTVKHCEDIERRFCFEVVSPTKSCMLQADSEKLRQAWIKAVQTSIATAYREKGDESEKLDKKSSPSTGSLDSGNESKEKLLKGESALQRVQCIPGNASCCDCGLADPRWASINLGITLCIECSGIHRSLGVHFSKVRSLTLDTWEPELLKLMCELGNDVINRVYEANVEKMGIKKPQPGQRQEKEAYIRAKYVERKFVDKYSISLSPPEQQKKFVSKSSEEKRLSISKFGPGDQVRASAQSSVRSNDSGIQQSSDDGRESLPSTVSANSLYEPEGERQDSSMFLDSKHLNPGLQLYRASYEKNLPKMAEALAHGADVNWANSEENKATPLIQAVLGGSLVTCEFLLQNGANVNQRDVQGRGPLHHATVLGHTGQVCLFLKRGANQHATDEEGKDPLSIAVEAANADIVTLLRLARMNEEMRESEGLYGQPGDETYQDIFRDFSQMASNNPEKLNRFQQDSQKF
# Outline: (§1)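 Data come from three independent experiments in which Dounce-homogenised Jurkat crude lysate was treated at eight concentrations from 0.1 to 10 mM. Treatment ran 10 min at room temperature and then 3 min at 37 °C, after which 0.8% NP40 and benzonase were added for 60 min at 4 °C before ultracentrifugation. The supernatant underwent TMT labelling and LC-MS/MS, and vsn-normalised intensities were expressed as fold change against the detergent-processed vehicle in each replicate.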
# CWF19L2 = molecular target: T2, CWF19L2 (UniProt Q2TBE0)
# T2 sequence (whole entry): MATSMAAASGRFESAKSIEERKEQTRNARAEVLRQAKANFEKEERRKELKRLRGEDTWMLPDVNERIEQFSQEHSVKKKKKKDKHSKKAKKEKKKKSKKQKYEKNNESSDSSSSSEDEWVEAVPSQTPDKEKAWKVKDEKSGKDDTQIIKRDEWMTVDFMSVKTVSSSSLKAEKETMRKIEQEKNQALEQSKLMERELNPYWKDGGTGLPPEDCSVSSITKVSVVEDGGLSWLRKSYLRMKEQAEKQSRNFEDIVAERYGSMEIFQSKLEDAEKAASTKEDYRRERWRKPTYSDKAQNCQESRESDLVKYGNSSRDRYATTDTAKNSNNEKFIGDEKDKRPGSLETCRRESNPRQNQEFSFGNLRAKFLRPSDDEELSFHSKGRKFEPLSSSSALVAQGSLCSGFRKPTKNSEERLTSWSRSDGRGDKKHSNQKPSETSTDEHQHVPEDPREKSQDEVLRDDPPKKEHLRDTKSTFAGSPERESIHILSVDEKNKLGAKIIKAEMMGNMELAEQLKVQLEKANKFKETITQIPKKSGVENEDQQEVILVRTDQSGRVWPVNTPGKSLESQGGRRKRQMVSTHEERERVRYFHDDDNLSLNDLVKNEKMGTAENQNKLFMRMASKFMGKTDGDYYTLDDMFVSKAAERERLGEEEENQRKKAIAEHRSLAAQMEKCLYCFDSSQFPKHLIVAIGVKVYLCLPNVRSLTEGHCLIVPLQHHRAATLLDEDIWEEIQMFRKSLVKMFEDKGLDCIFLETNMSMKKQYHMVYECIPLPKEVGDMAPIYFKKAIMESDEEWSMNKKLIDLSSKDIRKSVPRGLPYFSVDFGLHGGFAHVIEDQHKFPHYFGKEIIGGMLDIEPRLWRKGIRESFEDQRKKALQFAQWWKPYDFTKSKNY
# Outline: as §1
# FAM53B = molecular target: T3, FAM53B (UniProt Q14153)
# T3 sequence (whole entry): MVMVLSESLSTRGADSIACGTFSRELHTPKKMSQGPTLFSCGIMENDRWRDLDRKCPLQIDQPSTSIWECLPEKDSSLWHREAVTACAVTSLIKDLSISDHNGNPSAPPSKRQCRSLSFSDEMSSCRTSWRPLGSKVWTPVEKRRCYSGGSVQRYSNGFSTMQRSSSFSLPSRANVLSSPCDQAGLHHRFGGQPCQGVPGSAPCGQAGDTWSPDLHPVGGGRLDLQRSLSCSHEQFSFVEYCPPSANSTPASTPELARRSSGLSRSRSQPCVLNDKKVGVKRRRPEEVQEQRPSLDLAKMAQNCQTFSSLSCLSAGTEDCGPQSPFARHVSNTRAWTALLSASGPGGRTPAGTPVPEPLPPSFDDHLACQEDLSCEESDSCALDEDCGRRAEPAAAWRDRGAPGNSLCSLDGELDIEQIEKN
# Outline: as §1
# GALE = molecular target: T4, GALE (UniProt Q14376)
# T4 sequence (whole entry): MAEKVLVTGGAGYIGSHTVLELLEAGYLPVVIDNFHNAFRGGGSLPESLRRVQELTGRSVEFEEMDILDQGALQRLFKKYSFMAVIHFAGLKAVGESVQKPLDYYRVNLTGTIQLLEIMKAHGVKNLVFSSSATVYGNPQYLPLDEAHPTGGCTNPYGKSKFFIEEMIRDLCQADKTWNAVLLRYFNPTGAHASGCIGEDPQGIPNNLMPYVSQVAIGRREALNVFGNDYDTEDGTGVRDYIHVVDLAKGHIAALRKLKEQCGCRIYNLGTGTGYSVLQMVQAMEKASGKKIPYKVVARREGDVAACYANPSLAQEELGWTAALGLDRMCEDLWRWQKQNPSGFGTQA
# Outline: as §1
compound,measurement,setting,value
Nc1ncnc2c1ncn2[C@@H]1O[C@H](COP(=O)(O)OP(=O)(O)OP(=O)(O)O)[C@@H](O)[C@H]1O [adenosine triphosphate],NP40-soluble protein abundance,ACAP2; concentration: 1mM,0.959 ± 0.037
same,NP40-soluble protein abundance,ACAP2; concentration: 2mM,0.957 ± 0.038
same,NP40-soluble protein abundance,ACAP2; concentration: 4mM,0.953 ± 0.025
same,NP40-soluble protein abundance,ACAP2; concentration: 6mM,0.947 ± 0.03
same,NP40-soluble protein abundance,ACAP2; concentration: 8mM,0.949 ± 0.026
same,NP40-soluble protein abundance,ACAP2; concentration: 10mM,0.949 ± 0.024
same,NP40-soluble protein abundance,CWF19L2; concentration: 1mM,1.03 ± 0.051
same,NP40-soluble protein abundance,CWF19L2; concentration: 2mM,1.03 ± 0.036
same,NP40-soluble protein abundance,CWF19L2; concentration: 4mM,1.07 ± 0.062
same,NP40-soluble protein abundance,CWF19L2; concentration: 6mM,1.11 ± 0.079
same,NP40-soluble protein abundance,CWF19L2; concentration: 8mM,1.09 ± 0.032
same,NP40-soluble protein abundance,CWF19L2; concentration: 10mM,1.15 ± 0.019
same,NP40-soluble protein abundance,FAM53B; concentration: 1mM,1 ± 0.17
same,NP40-soluble protein abundance,FAM53B; concentration: 2mM,1.07 ± 0.24
same,NP40-soluble protein abundance,FAM53B; concentration: 4mM,1.06 ± 0.15
same,NP40-soluble protein abundance,FAM53B; concentration: 6mM,1.01 ± 0.23
same,NP40-soluble protein abundance,FAM53B; concentration: 8mM,0.984 ± 0.15
same,NP40-soluble protein abundance,FAM53B; concentration: 10mM,0.992 ± 0.16
same,NP40-soluble protein abundance,GALE; concentration: 1mM,0.973 ± 0.056
same,NP40-soluble protein abundance,GALE; concentration: 2mM,0.984 ± 0.06
same,NP40-soluble protein abundance,GALE; concentration: 4mM,0.979 ± 0.034
same,NP40-soluble protein abundance,GALE; concentration: 6mM,0.927 ± 0.081
same,NP40-soluble protein abundance,GALE; concentration: 8mM,0.971 ± 0.044
same,NP40-soluble protein abundance,GALE; concentration: 10mM,0.966 ± 0.043
